The values that follow come from publication PMC7819943, “Rice protein-binding microarrays: a tool to detect cis-acting elements near promoter regions in rice”.

By UniProt entry, the sequences of proteins in these tests, tags left out.
UniProt Q0JBA9, entry or part of it: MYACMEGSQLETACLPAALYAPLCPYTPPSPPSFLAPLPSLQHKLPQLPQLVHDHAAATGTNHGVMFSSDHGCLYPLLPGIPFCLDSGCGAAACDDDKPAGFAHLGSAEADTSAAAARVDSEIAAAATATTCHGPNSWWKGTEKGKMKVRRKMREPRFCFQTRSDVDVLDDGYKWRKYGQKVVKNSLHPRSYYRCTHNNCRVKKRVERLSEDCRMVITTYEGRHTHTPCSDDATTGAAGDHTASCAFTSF

The other results are listed elsewhere or left out.

This assay deals with OsWRKY34 (Oryza sativa, UniProt Q0JBA9 1-250). Nature of the assay: protein-binding microarray (RPBM); PBS, 2% BSA, 51.3 ng/ul salmon testes DNA, 50 uM zinc acetate, 200 nM TF, 25 C, 1 h; high values mean tight binding. To be noted: protein: recombinant; tags: N-terminal polyhistidine and DsRed monomer fusion (pET32a); label: CyDye5-dUTP incorporated in the synthesized complementary strand; 3' TTTTT single-stranded linker to array surface; dsDNA, one strand shown. The method in brief: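 Transcription factors were made in E. coli BL21-CodonPlus as N-terminal fusions to a polyhistidine tag and DsRed, then purified on Ni–NTA. After primer extension with Cy5-dUTP and blocking with 2% BSA, a custom Agilent array was exposed for 1 h at 25 °C to 200 nM protein in PBS, 2% BSA, salmon testes DNA and 50 µM zinc acetate. Washed arrays were scanned on an Axon 4000B, and the binding signal is per-feature fluorescence intensity in arbitrary units.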
As to “AGTGACCCTTATCTCTTCACCTATCTCTCTCCCTTCCCCTCGGAGTCACCTAGTGCAG”, the binding signal was 9580 fluorescence intensity (a.u.).
The same measure for “CGTCCTCGAGTGCTGCCATGATAACCCAATCCACTAATTACGGAGTCACCTAGTGCAG”: 11500 fluorescence intensity (a.u.); for “AGGCAACACATACAATGTATCACCTCTAACACACAAATACCGGAGTCACCTAGTGCAG”: 8410 fluorescence intensity (a.u.).
In the case of “AAAAACTATTGACAAATGTAGACGTTACCAGTTTTTTCTACGGAGTCACCTAGTGCAG”, the binding signal is 8160 fluorescence intensity (a.u.).
The same measure for “CATTTTGAATATGGACAGTGTCGTTTTTTTCCCCTTAGAGCGGAGTCACCTAGTGCAG”: 8860 fluorescence intensity (a.u.); for “GGGGAGGAATTTTTATGCTATTTTTTTTTCTTTTTTACCGCGGAGTCACCTAGTGCAG”: 12900 fluorescence intensity (a.u.).
Consider “GAAACCGTCGTAATACTCTCCGTCTTCCCATTCCAGTTCCCGGAGTCACCTAGTGCAG”, for which the binding signal is 8860 fluorescence intensity (a.u.).
The result for “CACCACACTTGACTACCTAACACCCACCAAGTACTCTTTTCGGAGTCACCTAGTGCAG” reads 8370 fluorescence intensity (a.u.); that for “TTTTCACTAGAGTTTTGAACCATTGATTTCACATTTTTCCCGGAGTCACCTAGTGCAG”, 8260 fluorescence intensity (a.u.); that for “GCTGTGTCCCTTCACAGTTTCATTTGACCATTTTCTTCTTCGGAGTCACCTAGTGCAG”, 12500 fluorescence intensity (a.u.).
The same measure for “GCGACGCTACCATTTCCGTCCGTTTGTTCAACCAACTCTCCGGAGTCACCTAGTGCAG”: 8910 fluorescence intensity (a.u.); for “GGCACGCGTGGAAATCGTTTCTACATCACACTGCCATATGCGGAGTCACCTAGTGCAG”: 10600 fluorescence intensity (a.u.); for “TTATATGTTTAACTCAAAATTTTCCTTCAGTTTTTACTCACGGAGTCACCTAGTGCAG”: 9580 fluorescence intensity (a.u.).
The same measure for “CGTTTAGCTTTCGTTTTGTGCACGGCGGGCGAGCTGACCGCGGAGTCACCTAGTGCAG”: 9100 fluorescence intensity (a.u.); for “CACCGTCGCCGGGACACACGCCGCCGCACCGCCTCCACCACGGAGTCACCTAGTGCAG”: 8390 fluorescence intensity (a.u.); for “CTACAACTCATATGTCGCTTGACTTTTTTTTTTTGTCAAACGGAGTCACCTAGTGCAG”: 11300 fluorescence intensity (a.u.).
“AATTGCATATACTGCTCATCTACTGCTTCATCTGTATGCACGGAGTCACCTAGTGCAG”: the binding signal is 9130 fluorescence intensity (a.u.).
The result for “AAAACCCCTCGTCTCCTCTCTCTTCTCTCGCCGTCTGCCGCGGAGTCACCTAGTGCAG” reads 8370 fluorescence intensity (a.u.); that for “CGTTTTTGGCTATTTTTAATTTTTTTTTCTAATTTCTTTTCGGAGTCACCTAGTGCAG”, 9040 fluorescence intensity (a.u.); that for “AGCGCCAACAAGAATCTAGAGATAGTGGTCTTGTTTACTTCGGAGTCACCTAGTGCAG”, 8900 fluorescence intensity (a.u.).
The result for “ACTGTTTATAGGGTAGGGGTAAGGTTGTGTTCATATAGGTCGGAGTCACCTAGTGCAG” reads 11700 fluorescence intensity (a.u.); that for “GGTGAACTTATTCCAATCTACAACAACAGTACGCACTTTCCGGAGTCACCTAGTGCAG”, 9670 fluorescence intensity (a.u.); that for “GCTTGACGCGTCGCTGATTCCGCCACTGATCATTTTTTTTCGGAGTCACCTAGTGCAG”, 11800 fluorescence intensity (a.u.).
The same measure for “TTTCATCGATTAATGTCAATATTGGATTATGTCTACATAACGGAGTCACCTAGTGCAG”: 8300 fluorescence intensity (a.u.); for “GTTAGCTAGCCACACACCACCTCACTCGTGTTAGCTCGGACGGAGTCACCTAGTGCAG”: 8700 fluorescence intensity (a.u.); for “CCGCCGCCCCAGCCGCCGTTGTCCTTCTTGCCCTTGCTCACGGAGTCACCTAGTGCAG”: 11800 fluorescence intensity (a.u.).
For “TTTCTTTGTGTTCTTTGATTTGTTCTTGGCAATCGCATCACGGAGTCACCTAGTGCAG”, the binding signal was 8500 fluorescence intensity (a.u.).
As to “ATTATATGGGCCGCACTTACCACATTCGCTTTCCGGCCCACGGAGTCACCTAGTGCAG”, the binding signal is 11500 fluorescence intensity (a.u.).
The same measure for “CCGACTGATTATGCCGCCGCCGACTGGTGCTTTTATCTTCCGGAGTCACCTAGTGCAG”: 9300 fluorescence intensity (a.u.); for “AGTCACTGGCCACCAATGATTTGCAGTAGTAACAGATATACGGAGTCACCTAGTGCAG”: 8190 fluorescence intensity (a.u.).
The result for “TTCGGTTGAACCTCGTCGATCTCTATCTTTTTCTTACTCTCGGAGTCACCTAGTGCAG” reads 8250 fluorescence intensity (a.u.); that for “CGACACGGTCTCTAAAACACAACTTTGACTTCTTTTTTCTCGGAGTCACCTAGTGCAG”, 9090 fluorescence intensity (a.u.); that for “TGGTACTATACCTGTCTTGGCCGTTTCCTTTGCTGGTTGTCGGAGTCACCTAGTGCAG”, 8410 fluorescence intensity (a.u.).
The result for “GGCAGTATTGTGGGTGGTTTCGTCCGACGTGGAGGATTGACGGAGTCACCTAGTGCAG” reads 10400 fluorescence intensity (a.u.); that for “GTCAATTTGGTTTGTAATCTTGTAGTAGATCTGTTTGTACCGGAGTCACCTAGTGCAG”, 9390 fluorescence intensity (a.u.).
As to “GAATTTCATATGATTTTTTCGATAACTATTCATATGATCCCGGAGTCACCTAGTGCAG”, the binding signal is 8990 fluorescence intensity (a.u.).
The result for “ACAAAACATGGTCGTCACAGTTGGGTTCAGGCTTTAATTTCGGAGTCACCTAGTGCAG” reads 9810 fluorescence intensity (a.u.).
Consider “TTGGAGGGTGTTGACCTAGTCTGTAGGGTTGACGTGACGCCGGAGTCACCTAGTGCAG”, for which the binding signal is 8460 fluorescence intensity (a.u.).
The result for “AAGCAGAGGAAGAGAACCCATCCATCCAACCATTCATAAACGGAGTCACCTAGTGCAG” reads 9130 fluorescence intensity (a.u.); that for “CTCGCGTCCGCTGCCTATTTCTGCCTCCGCCACGCCCACGCGGAGTCACCTAGTGCAG”, 10700 fluorescence intensity (a.u.).
The same measure for “CTAATCCCCTCTAGCTAGCCTCTTTTTTCTCCATTTGTTTCGGAGTCACCTAGTGCAG”: 11100 fluorescence intensity (a.u.); for “TCGGAGAGGGGCTTGTTCGTTTCTTCTTCCTCGCGCCGCGCGGAGTCACCTAGTGCAG”: 9950 fluorescence intensity (a.u.).
